US20100047232A1
These are yes or no findings as the source states them, for the method shown. Some binding calls cover weakened binding; strength is not graded here. Blank lines part the entries; values can stand above or below the binder they belong to.

The chains behind the UniProt entries cited, without tags or fusion partners. Where a name states a change or a piece, a line headed by the entry shows the natural chain unless it says otherwise.
UniProt Q8N423: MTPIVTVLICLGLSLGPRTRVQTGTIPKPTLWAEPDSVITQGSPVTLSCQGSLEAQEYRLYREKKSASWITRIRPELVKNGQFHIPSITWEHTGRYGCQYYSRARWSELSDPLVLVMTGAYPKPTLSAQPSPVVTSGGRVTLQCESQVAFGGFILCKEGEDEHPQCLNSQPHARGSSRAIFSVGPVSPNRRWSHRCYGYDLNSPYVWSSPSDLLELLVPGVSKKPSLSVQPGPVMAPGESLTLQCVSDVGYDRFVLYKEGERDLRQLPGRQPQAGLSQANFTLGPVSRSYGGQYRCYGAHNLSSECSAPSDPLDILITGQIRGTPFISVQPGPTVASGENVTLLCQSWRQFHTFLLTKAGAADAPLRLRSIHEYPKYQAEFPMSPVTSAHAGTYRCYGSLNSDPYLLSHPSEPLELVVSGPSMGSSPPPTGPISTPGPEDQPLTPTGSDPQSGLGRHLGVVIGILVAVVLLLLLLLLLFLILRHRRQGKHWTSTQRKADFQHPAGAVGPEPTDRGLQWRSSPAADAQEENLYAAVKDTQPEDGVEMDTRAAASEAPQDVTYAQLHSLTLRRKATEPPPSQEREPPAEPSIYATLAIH
UniProt P97484: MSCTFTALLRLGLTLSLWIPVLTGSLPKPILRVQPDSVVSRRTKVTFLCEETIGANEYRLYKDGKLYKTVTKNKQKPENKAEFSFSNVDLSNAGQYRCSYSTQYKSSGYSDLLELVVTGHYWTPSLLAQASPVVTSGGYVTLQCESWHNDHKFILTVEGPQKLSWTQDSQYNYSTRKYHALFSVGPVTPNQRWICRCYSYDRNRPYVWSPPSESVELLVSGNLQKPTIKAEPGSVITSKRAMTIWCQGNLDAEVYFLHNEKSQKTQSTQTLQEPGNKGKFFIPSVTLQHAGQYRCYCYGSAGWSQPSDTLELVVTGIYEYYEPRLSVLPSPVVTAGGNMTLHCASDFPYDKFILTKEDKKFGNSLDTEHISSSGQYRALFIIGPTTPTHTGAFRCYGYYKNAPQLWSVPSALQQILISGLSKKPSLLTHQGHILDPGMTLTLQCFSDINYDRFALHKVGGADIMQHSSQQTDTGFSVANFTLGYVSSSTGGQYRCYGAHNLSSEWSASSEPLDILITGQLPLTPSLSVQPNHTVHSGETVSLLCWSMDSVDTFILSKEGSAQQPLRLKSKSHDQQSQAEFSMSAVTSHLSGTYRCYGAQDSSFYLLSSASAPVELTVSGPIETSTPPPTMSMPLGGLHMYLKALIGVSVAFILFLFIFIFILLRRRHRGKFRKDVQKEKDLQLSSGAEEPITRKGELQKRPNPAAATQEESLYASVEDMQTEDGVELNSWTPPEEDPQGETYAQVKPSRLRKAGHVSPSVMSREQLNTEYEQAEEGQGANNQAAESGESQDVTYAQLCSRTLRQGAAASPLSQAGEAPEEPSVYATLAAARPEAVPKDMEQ

Tests used:
[1] = target: LILRB2, transcript variant 1 (leukocyte immunoglobulin-like receptor, subfamily B, member 2) (human) (UniProt Q8N423); test: AP-OMgp on transfected COS7 cells, chromogenic AP substrate
[2] = target: T1, PirB (paired-immunoglobulin-like receptor B), mouse (mouse) (UniProt P97484); test: as above
T1 sequence: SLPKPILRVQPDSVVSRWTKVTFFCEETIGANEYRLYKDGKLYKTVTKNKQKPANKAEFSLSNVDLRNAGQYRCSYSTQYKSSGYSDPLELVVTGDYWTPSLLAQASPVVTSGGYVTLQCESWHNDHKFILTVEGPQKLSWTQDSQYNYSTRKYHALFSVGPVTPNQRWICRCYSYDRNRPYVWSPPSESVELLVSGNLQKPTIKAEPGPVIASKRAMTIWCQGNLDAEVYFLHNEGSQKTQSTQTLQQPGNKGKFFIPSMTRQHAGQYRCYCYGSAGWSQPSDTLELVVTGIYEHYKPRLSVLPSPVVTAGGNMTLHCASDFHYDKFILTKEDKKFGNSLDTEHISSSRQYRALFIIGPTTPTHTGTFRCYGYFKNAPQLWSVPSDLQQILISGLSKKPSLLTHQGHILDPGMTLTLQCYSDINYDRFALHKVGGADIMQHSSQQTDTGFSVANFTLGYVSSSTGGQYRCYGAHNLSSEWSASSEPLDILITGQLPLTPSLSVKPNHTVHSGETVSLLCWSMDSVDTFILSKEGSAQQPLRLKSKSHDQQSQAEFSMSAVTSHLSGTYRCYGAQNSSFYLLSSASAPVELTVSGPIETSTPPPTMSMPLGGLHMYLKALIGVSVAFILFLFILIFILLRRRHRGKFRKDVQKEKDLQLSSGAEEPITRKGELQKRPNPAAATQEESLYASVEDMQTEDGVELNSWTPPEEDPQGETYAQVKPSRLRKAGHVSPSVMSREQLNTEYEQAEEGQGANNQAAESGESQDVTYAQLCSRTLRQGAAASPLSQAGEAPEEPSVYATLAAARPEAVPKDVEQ

[3] = target: T2, Homo sapiens hypothetical protein from clone 643 (LOC57228), alternative ORF homologous to SMAG (human) (UniProt Q0VAQ4); test: expression cloning, AP-fusion bait (20-50 nM) on COS7 cells transfected with human cDNA pools
T2 sequence (looked up): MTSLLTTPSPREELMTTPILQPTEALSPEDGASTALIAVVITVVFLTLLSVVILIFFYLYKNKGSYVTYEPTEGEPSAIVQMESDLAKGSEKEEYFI

[4] = target: T3, Nogo Receptor (hit from the human cDNA library) (human) (UniProt Q9BZR6); test: as above
T3 sequence (looked up): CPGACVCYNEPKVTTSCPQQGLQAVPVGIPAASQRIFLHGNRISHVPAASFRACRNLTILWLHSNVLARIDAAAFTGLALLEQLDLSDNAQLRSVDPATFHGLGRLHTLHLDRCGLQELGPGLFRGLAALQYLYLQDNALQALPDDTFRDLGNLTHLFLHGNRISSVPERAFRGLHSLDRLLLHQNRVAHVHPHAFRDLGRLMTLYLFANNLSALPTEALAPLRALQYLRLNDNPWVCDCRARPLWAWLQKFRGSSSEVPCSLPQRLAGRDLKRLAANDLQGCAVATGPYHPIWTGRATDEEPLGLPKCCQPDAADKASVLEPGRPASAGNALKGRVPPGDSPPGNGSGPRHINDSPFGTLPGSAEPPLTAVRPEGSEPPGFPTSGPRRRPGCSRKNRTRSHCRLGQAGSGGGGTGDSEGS

binding [1]: binds
binding [2]: binds
B1: AP-OMgp (ligand, UniProt P23515 25-417, looked up, not shown: large carriers)
chain: ICPLQCICTERHRHVDCSGRNLSTLPSGLQENIIHLNLSYNHFTDLHNQLTQYTNLRTLDISNNRLESLPAHLPRSLWNMSAANNNIKLLDKSDTAYQWNLKYLDVSKNMLEKVVLIKNTLRSLEVLNLSSNKLWTVPTNMPSKLHIVDLSNNSLTQILPGTLINLTNLTHLYLHNNKFTFIPDQSFDQLFQLQEITLYNNRWSCDHKQNITYLLKWMMETKAHVIGTPCSTQISSLKEHNMYPTPSGFTSSLFTVSGMQTVDTINSLSVVTQPKVTKIPKQYRTKETTFGATLSKDTTFTSTDKAFVPYPEDTSTETINSHEAAAATLTIHLQDGMVTNTSLTSSTKSSPTPMTLSITSGMPNNFSEMPQQSTTLNLWREETTTNVKTPLPS

binding [3]: binds
binding [4]: binds
B2: MAG-AP (ligand, UniProt P20916 20-516, looked up, not shown: large carriers)
chain: GHWGAWMPSSISAFEGTCVSIPCRFDFPDELRPAVVHGVWYFNSPYPKNYPPVVFKSRTQVVHESFQGRSRLLGDLGLRNCTLLLSNVSPELGGKYYFRGDLGGYNQYTFSEHSVLDIVNTPNIVVPPEVVAGTEVEVSCMVPDNCPELRPELSWLGHEGLGEPAVLGRLREDEGTWVQVSLLHFVPTREANGHRLGCQASFPNTTLQFEGYASMDVKYPPVIVEMNSSVEAIEGSHVSLLCGADSNPPPLLTWMRDGTVLREAVAESLLLELEEVTPAEDGVYACLAENAYGQDNRTVGLSVMYAPWKPTVNGTMVAVEGETVSILCSTQSNPDPILTIFKEKQILSTVIYESELQLELPAVSPEDDGEYWCVAENQYGQRATAFNLSVEFAPVLLLESHCAAARDTVQCLCVVKSNPEPSVAFELPSRNVTVNESEREFVYSERSGLVLTSILTLRGQAQAPPRVICTARNLYGAKSLELPFQGAHRLMWAKIGP
